From US10201523B2, “Use of wilforlide A for overcoming chemotherapy resistance” (WESTERN UNIVERSITY OF HEALTH SCIENCES, priority 2013, dated 2019)
Where “and” joins values, the source holds several entries; their conditions need not be identical. Identical values can stand only once. Further values from the same series stand in other lists.

Tested on: PC3
Assay: SRB cell viability assay, docetaxel with/without wilforlide A pretreatment
Details: background = 0.044

## CC(=O)O[C@@]12CO[C@@H]1C[C@H](O)[C@@]1(C)C(=O)[C@H](O)C3=C(C)[C@@H](OC(=O)[C@H](O)[C@@H](NC(=O)OC(C)(C)C)c4ccccc4)C[C@@](O)([C@@H](OC(=O)c4ccccc4)[C@H]21)C3(C)C [docetaxel]
No wilforlide A pre-Tx (control of Table 8), docetaxel 0.001 nM 72 h
  A at 565 nm: 2.050 and 2.018 and 1.900
No wilforlide A pre-Tx (control of Table 8), docetaxel 0.1 nM 72 h
  A at 565 nm: 1.999 and 2.079 and 1.964
No wilforlide A pre-Tx (control of Table 8), docetaxel 0.333 nM 72 h
  A at 565 nm: 1.864 and 1.989 and 1.823
No wilforlide A pre-Tx (control of Table 8), docetaxel 1 nM 72 h
  A at 565 nm: 1.379 and 1.513 and 1.358
No wilforlide A pre-Tx (control of Table 8), docetaxel 3.33 nM 72 h
  A at 565 nm: 0.885 and 0.969 and 0.877
No wilforlide A pre-Tx (control of Table 8), docetaxel 10 nM 72 h
  A at 565 nm: 0.460 and 0.475 and 0.437
No wilforlide A pre-Tx (control of Table 8), docetaxel 33.3 nM 72 h
  A at 565 nm: 0.366 and 0.328
No wilforlide A pre-Tx (control of Table 8), docetaxel 100 nM 72 h
  A at 565 nm: 0.348 and 0.341
Wilforlide A 2.5 μg/ml pre-Tx, docetaxel 0.001 nM 72 h
  A at 565 nm: 1.702 and 1.735 and 1.819
Wilforlide A 2.5 μg/ml pre-Tx, docetaxel 0.1 nM 72 h
  A at 565 nm: 1.738 and 1.806 and 1.812
Wilforlide A 2.5 μg/ml pre-Tx, docetaxel 0.333 nM 72 h
  A at 565 nm: 1.640 and 1.632
Wilforlide A 2.5 μg/ml pre-Tx, docetaxel 1 nM 72 h
  A at 565 nm: 1.206 and 1.259
Wilforlide A 2.5 μg/ml pre-Tx, docetaxel 3.33 nM 72 h
  A at 565 nm: 0.779 and 0.717
Wilforlide A 2.5 μg/ml pre-Tx, docetaxel 10 nM 72 h
  A at 565 nm: 0.425 and 0.381
Wilforlide A 2.5 μg/ml pre-Tx, docetaxel 33.3 nM 72 h
  A at 565 nm: 0.333 and 0.317
Wilforlide A 2.5 μg/ml pre-Tx, docetaxel 100 nM 72 h
  A at 565 nm: 0.330 and 0.316
